Measurements: patent publication US20050170434A1
These are yes or no findings as the source states them, for the method shown. Some entries that bind do so weakly or less than the wild type.

The chains behind the UniProt entries cited, without tags or fusion partners.
UniProt Q06187: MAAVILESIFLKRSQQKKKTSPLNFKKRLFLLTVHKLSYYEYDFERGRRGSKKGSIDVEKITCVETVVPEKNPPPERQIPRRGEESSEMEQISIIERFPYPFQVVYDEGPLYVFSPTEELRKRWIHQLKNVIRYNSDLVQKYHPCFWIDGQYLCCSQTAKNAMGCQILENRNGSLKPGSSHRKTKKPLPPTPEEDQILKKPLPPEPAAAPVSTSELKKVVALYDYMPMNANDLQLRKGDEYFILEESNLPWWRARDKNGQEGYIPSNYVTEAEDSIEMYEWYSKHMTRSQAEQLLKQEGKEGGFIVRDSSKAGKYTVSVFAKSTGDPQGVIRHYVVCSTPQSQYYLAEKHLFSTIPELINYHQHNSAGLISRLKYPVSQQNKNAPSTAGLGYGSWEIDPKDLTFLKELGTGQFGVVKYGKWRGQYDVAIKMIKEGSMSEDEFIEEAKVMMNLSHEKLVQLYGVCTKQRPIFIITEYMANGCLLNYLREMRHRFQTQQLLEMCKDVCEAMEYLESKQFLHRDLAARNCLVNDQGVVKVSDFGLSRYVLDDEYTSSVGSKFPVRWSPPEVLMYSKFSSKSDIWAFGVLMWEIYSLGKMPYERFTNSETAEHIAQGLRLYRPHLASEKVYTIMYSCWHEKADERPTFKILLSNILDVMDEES

Target: Btk (UniProt Q06187)
Experiment: yeast two hybrid assay, Btk as bait (data not shown)

B1: Mkk3b (enzyme)
chain: MESPASSQPASMPQSKGKSKRKKDLRISCMSKPPAPNPTPPRNLDSRTFITIGDRNFEVEADDLVTISELGRGAYGVVEKVRHAQSGTIMAVKRIRATVNSQEQKRLLMDLDINMRTVDCFYTVTFYGALFREGDVWICMELMDTSLDKFYRKVLDKNMTIPEDILGEIAVSIVRALEHLHSKLSVIHRDVKPSNVLINKEGHVKMCDFGISGYLVDSVAKTMDAGCKPYMAPERINPELNQKGYNVKSDVWSLGITMIEMAILRFPYESWGTPFQQLKQVVEEPSPQLPADRFSPEFVDFTAQCLRKNPAERMSYLELMEHPFFTLHKTKKTDIAAFVKEILGEDS
  binding: binds
